# Laboratory results published in PMC8336496.
# The chains behind the UniProt entries cited, without tags or fusion partners. Where a name states a change or a piece, a line headed by the entry shows the natural chain unless it says otherwise.
# UniProt P11087: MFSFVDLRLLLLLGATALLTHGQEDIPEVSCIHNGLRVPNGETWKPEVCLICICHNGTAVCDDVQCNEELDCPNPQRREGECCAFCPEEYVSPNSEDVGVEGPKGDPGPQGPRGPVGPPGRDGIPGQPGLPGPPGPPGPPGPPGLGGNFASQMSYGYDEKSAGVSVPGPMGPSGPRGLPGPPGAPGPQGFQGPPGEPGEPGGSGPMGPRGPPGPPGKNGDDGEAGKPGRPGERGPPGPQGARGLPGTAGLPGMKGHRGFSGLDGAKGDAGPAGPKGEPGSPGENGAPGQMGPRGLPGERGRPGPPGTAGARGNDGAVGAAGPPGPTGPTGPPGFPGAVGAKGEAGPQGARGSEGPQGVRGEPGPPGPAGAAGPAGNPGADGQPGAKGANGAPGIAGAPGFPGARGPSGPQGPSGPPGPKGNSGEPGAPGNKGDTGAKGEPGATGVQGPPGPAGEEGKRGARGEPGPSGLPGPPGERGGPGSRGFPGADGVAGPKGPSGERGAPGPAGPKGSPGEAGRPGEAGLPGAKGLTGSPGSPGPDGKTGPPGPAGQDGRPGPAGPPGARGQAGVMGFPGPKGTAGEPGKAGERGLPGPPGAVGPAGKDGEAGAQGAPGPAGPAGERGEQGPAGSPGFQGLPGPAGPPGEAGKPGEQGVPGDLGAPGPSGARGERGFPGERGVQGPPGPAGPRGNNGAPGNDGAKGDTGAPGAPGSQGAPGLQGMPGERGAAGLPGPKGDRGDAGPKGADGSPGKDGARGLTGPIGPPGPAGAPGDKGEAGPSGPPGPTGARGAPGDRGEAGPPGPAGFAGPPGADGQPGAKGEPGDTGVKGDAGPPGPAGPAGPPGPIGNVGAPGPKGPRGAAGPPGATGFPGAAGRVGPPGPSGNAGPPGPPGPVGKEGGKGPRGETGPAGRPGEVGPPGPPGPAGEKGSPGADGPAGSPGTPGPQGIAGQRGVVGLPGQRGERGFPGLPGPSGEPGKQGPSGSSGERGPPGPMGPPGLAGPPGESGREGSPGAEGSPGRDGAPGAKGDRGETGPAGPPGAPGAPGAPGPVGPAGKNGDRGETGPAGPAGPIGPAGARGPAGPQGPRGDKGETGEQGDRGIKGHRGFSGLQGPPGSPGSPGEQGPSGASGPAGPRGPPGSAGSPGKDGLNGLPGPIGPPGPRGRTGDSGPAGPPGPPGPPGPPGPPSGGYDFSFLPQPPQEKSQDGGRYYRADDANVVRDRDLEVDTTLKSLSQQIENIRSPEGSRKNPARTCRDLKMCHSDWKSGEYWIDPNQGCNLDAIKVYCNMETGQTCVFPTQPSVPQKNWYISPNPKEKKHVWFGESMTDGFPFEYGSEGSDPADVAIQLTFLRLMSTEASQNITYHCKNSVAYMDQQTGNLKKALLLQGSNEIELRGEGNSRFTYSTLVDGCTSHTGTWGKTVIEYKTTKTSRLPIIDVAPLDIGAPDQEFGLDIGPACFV
# These are yes or no findings as the source states them, for the method shown. In cells and extracts the contact can be indirect. Binding calls can cover weak binding; strength is not graded here. Sequences can lack the tags named with a protein.
# Molecular target: T1, His-tagged translocation-associated membrane protein 2 (TRAM2) (UniProt Q924Z5)
# T1 sequence: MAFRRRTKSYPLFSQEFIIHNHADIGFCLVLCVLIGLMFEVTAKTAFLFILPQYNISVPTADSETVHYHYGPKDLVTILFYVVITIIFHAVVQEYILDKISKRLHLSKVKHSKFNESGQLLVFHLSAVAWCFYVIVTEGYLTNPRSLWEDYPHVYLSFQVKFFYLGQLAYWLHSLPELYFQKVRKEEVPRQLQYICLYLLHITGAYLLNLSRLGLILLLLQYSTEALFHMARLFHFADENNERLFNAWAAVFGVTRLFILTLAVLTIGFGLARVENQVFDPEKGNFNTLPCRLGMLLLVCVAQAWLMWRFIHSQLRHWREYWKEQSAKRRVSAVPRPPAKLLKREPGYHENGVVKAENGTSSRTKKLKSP
# Test: co-IP; His antibody precipitates N-terminally His-tagged TRAM2 from transfected BMSCs; blots for endogenous SERCA2b and Col1; cells treated with Ion, TG, FT011 or FT011 plus Lv-Col1
substance,measurement,value
collagen 1 (Col1) (from UniProt P11087),binding,binds
